PubChem BioAssay AID1671195 – Yale University, 2021

- Screen: 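Regulators of LDL receptor activity judged by labelled LDL uptake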 (primary screen)
- Cells: human Huh7 hepatoma cells
- Reagent: siRNA pool against human genes, 18 nM
- Time to read-out: about 2 to 2.5 days of knockdown, then 8 h LDL uptake
- Treatment: DiI-labelled LDL at 30 µg/ml for 8 h, in lipoprotein-deficient serum medium
- Detection: 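Fluorescent LDL signal imaged in cells, scaled to the plate median, robust z-score for each replicate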
- Scale: robust z-score: higher = more LDL uptake after knockdown
- Call rule: 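Active when two or more replicates show a robust z-score above 2 or below -2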
The deposit covers about 22,000 reagents; shown is a part drawn at random. Of all reagents, about 1,510 (6.9%) are marked active. 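Active includes knockdowns raising or lowering LDL uptake; positive z-scores mean more uptake, negative mean less.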 A number with no mark means an inactive call. Reagent sequences are not shown.

gene knocked down	robust z-score, replicate 1	robust z-score, replicate 2	robust z-score, replicate 3
HTR1D (GeneID 3352)	0.311	-0.975	-0.0791
MISP (GeneID 126353)	-2.35 (active)	-2.79	-2.66
GRIP2 (GeneID 80852)	-0.507	-0.128	0.0639
NFYB (GeneID 4801)	0.396	-0.0314	0.373
CACNG3 (GeneID 10368)	1.28	1.93	1.99
TM7SF2 (GeneID 7108)	-1	-1.29	-1.06
BIRC2 (GeneID 329)	2.11 (active)	2.69	1.63
REXO5 (GeneID 81691)	-0.613	-0.649	-0.071
ASIC5 (GeneID 51802)	0.612	0.455	0.535
ADAMTS13 (GeneID 11093)	-0.563	-0.755	-0.0358
PRRG4 (GeneID 79056)	-1.59	-1.42	-1.22
ITPR3 (GeneID 3710)	-0.0476	-0.612	-0.608
TRIM21 (GeneID 6737)	-1.05	-0.902	-1.19
ACAP2 (GeneID 23527)	0.126	-1.06	-0.937
LAG3 (GeneID 3902)	0.866	1.17	1.77
YWHAG (GeneID 7532)	-1.19	-1.59	-0.96
PLAC9 (GeneID 219348)	0.696	0.362	0.695
GSDMD (GeneID 79792)	-2.18 (active)	-1.88	-2
NOP14 (GeneID 8602)	4.7	0.771	3.14
GALNT4 (GeneID 8693)	-0.599	-0.798	-0.557
LSM12 (GeneID 124801)	2.16 (active)	2.9	2.64
ARV1 (GeneID 64801)	-2.08	-1.81	-1.55
ABCF3 (GeneID 55324)	-0.544	-0.811	-0.451
PPIL4 (GeneID 85313)	-0.276	-0.113	-0.39
GPAT3 (GeneID 84803)	0.562	2.5	0.835
UPF2 (GeneID 26019)	0.509	0.791	0.303
CHRNG (GeneID 1146)	-1.59	-1.77	-1.61
LOC440938 (retired record) (GeneID 440938)	-0.0303	0.314	-0.0337
MTHFD1L (GeneID 25902)	0.108	-0.4	0.172
BICDL2 (GeneID 146439)	2.02 (active)	2.76	1.7
DPY19L2 (GeneID 283417)	-0.821	-0.66	-0.472
RTTN (GeneID 25914)	1.12	1.48	0.891
PES1 (GeneID 23481)	-2.56 (active)	-2.01	-2.17
AKT1S1 (GeneID 84335)	-0.0808	0.489	0.184
OR2F2 (GeneID 135948)	1.01	1.11	2.37
CDX4 (GeneID 1046)	-1.41	-1.06	-0.378
LOC441993 (retired record) (GeneID 441993)	-0.428	-0.674	-0.775
EIF1B (GeneID 10289)	-1.87	-0.928	1.5
BNIP2 (GeneID 663)	-1.17	-1.12	-0.855
CCNO (GeneID 10309)	0.0862	1.38	1.75
ATG4B (GeneID 23192)	-1.13	-0.893	-1.12
SNRPB (GeneID 6628)	-0.293	-0.414	-0.233
LOC390570 (retired record) (GeneID 390570)	0.836	1.52	0.629
CPZ (GeneID 8532)	-0.383	-1.18	-2.87
NGRNP1 (GeneID 730129)	-1.14	-0.686	-0.985
HOTAIR (GeneID 100124700)	0.886	0.0114	0.146
GTF3C4 (GeneID 9329)	-0.524	-1.8	-2.06
RPS18P7 (GeneID 133790)	0.476	-0.0851	0.585
RPP14 (GeneID 11102)	-0.672	-1.29	-0.675
JUN (GeneID 3725)	-0.277	0.929	-0.357
MTHFSD (GeneID 64779)	1.15	1.48	0.961
LOC392726 (retired record) (GeneID 392726)	-0.502	-0.433	-0.828
MTA2 (GeneID 9219)	-1.54	-0.861	-0.87
SERTAD2 (GeneID 9792)	-0.731	-1.51	0.291
RABEP1 (GeneID 9135)	2.01	0.0435	0.107
GFUS (GeneID 7264)	0.751	0.842	1.18
LOC399920 (retired record) (GeneID 399920)	-0.937	-1.52	-1.74
TRIM35 (GeneID 23087)	-0.529	0.842	0.702
SOWAHC (GeneID 65124)	0.506	1.11	0.962
TRAPPC9 (GeneID 83696)	-1.62	-1.62	-1.96
ATP6V1G3 (GeneID 127124)	-0.354	-0.32	0.0998
TMEM38A (GeneID 79041)	4.99 (active)	4.91	4.42
PLCH2 (GeneID 9651)	1.47	0.36	-0.0483
TRADD (GeneID 8717)	0.0059	0.232	1.32
TMIE (GeneID 259236)	0.116	0.597	0.868
GEMIN4 (GeneID 50628)	-0.462	-0.485	-0.217
OR7D2 (GeneID 162998)	-0.661	-0.599	0.0713
SOX5 (GeneID 6660)	1.56	1.56	0.744
